Results are given in words; binding and its absence hold for the method and conditions named. In cells and extracts the contact can be indirect. Some binding calls cover weakened binding; strength is not graded here. Tags and fused reporters may be left off the sequences shown.
B1: TGF-beta activated kinase 1 (MAP3K7) binding protein 1 (TAB1) (protein, UniProt Q15750 1-504)
chain: MAAQRRSLLQSEQQPSWTDDLPLCHLSGVGSASNRSYSADGKGTESHPPEDSWLKFRSENNCFLYGVFNGYDGNRVTNFVAQRLSAELLLGQLNAEHAEADVRRVLLQAFDVVERSFLESIDDALAEKASLQSQLPEGVPQHQLPPQYQKILERLKTLEREISGGAMAVVAVLLNNKLYVANVGTNRALLCKSTVDGLQVTQLNVDHTTENEDELFRLSQLGLDAGKIKQVGIICGQESTRRIGDYKVKYGYTDIDLLSAAKSKPIIAEPEIHGAQPLDGVTGFLVLMSEGLYKALEAAHGPGQANQEIAAMIDTEFAKQTSLDAVAQAVVDRVKRIHSDTFASGGERARFCPRHEDMTLLVRNFGYPLGEMSQPTPSPAPAAGGRVYPVSVPYSSAQSTSKTSVTLSLVMPSQGQMVNGAHSASTLDEATPTLTNQSPTLTLQSTNTHTQSSSSSSDGGLFRSRPAHSLPPGEDGRVEPYVDFAEFYRLWSVDHGEQSVVTAP
B2: mitogen-activated protein kinase kinase kinase 7 (MAP3K7) (protein, UniProt O43318 1-606)
chain: MSTASAASSSSSSSAGEMIEAPSQVLNFEEIDYKEIEVEEVVGRGAFGVVCKAKWRAKDVAIKQIESESERKAFIVELRQLSRVNHPNIVKLYGACLNPVCLVMEYAEGGSLYNVLHGAEPLPYYTAAHAMSWCLQCSQGVAYLHSMQPKALIHRDLKPPNLLLVAGGTVLKICDFGTACDIQTHMTNNKGSAAWMAPEVFEGSNYSEKCDVFSWGIILWEVITRRKPFDEIGGPAFRIMWAVHNGTRPPLIKNLPKPIESLMTRCWSKDPSQRPSMEEIVKIMTHLMRYFPGADEPLQYPCQYSDEGQSNSATSTGSFMDIASTNTSNKSDTNMEQVPATNDTIKRLESKLLKNQAKQQSESGRLSLGASRGSSVESLPPTSEGKRMSADMSEIEARIAATTAYSKPKRGHRKTASFGNILDVPEIVISGNGQPRRRSIQDLTVTGTEPGQVSSRSSSPSVRMITTSGPTSEKPTRSHPWTPDDSTDTNGSDNSIPMAYLTLDHQLQPLAPCPNSKESMAVFEQHCKMAQEYMKVQTEIALLLQRKQELVAELDQDEKDQQNTSRLVQEHKKLLDENKSLSTYYQQCKKQLEVIRSQQQKRQGTS

Molecular target: T1, CD83-3×Flag (human CD83, full length, with C-terminal 3×Flag tag) (human) (UniProt Q01151)
T1 sequence: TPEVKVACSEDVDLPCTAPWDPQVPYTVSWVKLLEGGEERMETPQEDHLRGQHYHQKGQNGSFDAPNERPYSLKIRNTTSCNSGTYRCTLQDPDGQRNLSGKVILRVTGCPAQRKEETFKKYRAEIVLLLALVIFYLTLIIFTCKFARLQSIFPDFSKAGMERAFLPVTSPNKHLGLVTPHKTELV
Assay: co-IP; CD83-3×Flag, CD83 ΔID-3×Flag or control SKOV3 cells lysed, immunoprecipitated with anti-Flag magnetic beads; Western blot for Flag, TAK1, TAB1, β-actin

Row | Binder | binding
1 | B1 | binds
2 | B2 | binds
